These results are taken from the supplement of paper PMC8256030.

Where “and” joins values, the source holds several entries; their conditions need not be identical. Equal values may be shown once. Where a name gives a salt, the structure may show the parent alone. The list shows a part of the results. Single values are uncertain here, since repeats match poorly.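 HEK293T cells were given each compound shortly before transfection with a reporter in which red mCherry is followed by the SARS-CoV-2 frameshift element and then GFP in the −1 frame, so GFP appears only after frameshifting.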

The test concerns HEK293T. The experiment in a line: percent viability (nuclei count) relative to control; higher = more viable cells. As to conditions: 10 µM; 24 h.
`CN(CCOc1ccc(CC2SC(=O)NC2=O)cc1)c1ccccn1` (stereo not given): the percent viability is 329%.
For the molecule `O=C(O)CCC/C=C\CC1C(O)CC(O)C1/C=C/C(O)COc1cccc(Cl)c1` (stereo not given) [cloprostenol], the percent viability is 284%.
`CC(COc1ccccc1)NC(C)C(O)c1ccc(O)cc1` (stereo not given) [isoxsuprine]: the percent viability is 208% and 162%.
`C[C@@H]1O[C@@H](OC[C@H]2O[C@@H](Oc3c(-c4ccc(OCCO)c(OCCO)c4)oc4cc(OCCO)cc(O)c4c3=O)[C@H](O)[C@@H](O)[C@@H]2O)[C@H](O)[C@H](O)[C@H]1O` [troxerutin]: the percent viability is 202%.
As to `CC(C)(Oc1ccc(C2CCCc3ccccc32)cc1)C(=O)O` (stereo not given) [nafenopin], the percent viability was 129%.
For the molecule `Clc1ccccc1CN1CCc2sccc2C1` [ticlopidine], the percent viability is 193%.
With `COc1cc2[nH]c(C)c(CCN3CCN(c4ccccc4)CC3)c2cc1OC` [oxypertine], the percent viability turned out to be 179%.
`N[C@@H](Cc1ccc(O)c(O)c1)C(=O)O` [levodopa]: the percent viability was 93.4% and 106%.
On to `O=C(O)CCNC(=O)c1ccc(/N=N/c2ccc(O)c(C(=O)O)c2)cc1`, for which the percent viability came to 310%.
Turning to `Cc1ccc(NC(=O)c2ccc(CN3CCN(C)CC3)cc2)cc1Nc1nccc(-c2cccnc2)n1` [imatinib], the percent viability was 247% and 433%.
Turning to `N#Cc1cc(I)c(O)c([N+](=O)[O-])c1` [nitroxinil], the percent viability worked out at 117%.
In the case of `CN1CCCCC1CCN1c2ccccc2Sc2ccc([S+](C)[O-])cc21` (stereo not given) [Mesoridazine besylate] it was 264%; in that of `CC(=O)O[C@@]12CO[C@@H]1C[C@H](O)[C@@]1(C)C(=O)[C@H](O)C3=C(C)[C@@H](OC(=O)[C@H](O)[C@@H](NC(=O)OC(C)(C)C)c4ccccc4)C[C@@](O)([C@@H](OC(=O)c4ccccc4)[C@H]21)C3(C)C`, 30.3%.
With `Cc1cc(C)c(NC(=O)CN(CC(=O)O)CC(=O)O)c(C)c1Br` [mebrofenin], the percent viability was determined as 144%.
In the case of `C#C[C@]1(O)CC[C@H]2[C@@H]3CCc4cc(O)ccc4[C@H]3CC[C@@]21C` [ethinylestradiol] it was 33.3%; in that of `COc1nsnc1NS(=O)(=O)c1ccc(N)cc1` [sulfametrole], 444%; in that of `CCOC(=O)N1c2ccc(C(F)(F)F)cc2[C@@H](N(Cc2cc(C(F)(F)F)cc(C(F)(F)F)c2)C(=O)OC)C[C@H]1CC` [torcetrapib], 152%.
For `CCCCCCCCCCCCCCCC(=O)O[C@@H]1[C@@H](O)[C@@H](O)[C@@H]([C@H](NC(=O)[C@@H]2C[C@@H](CCC)CN2C)[C@H](C)Cl)O[C@@H]1SC` [Clindamycin palmitate·HCl], the percent viability was determined as 88.8%.
As for `COc1ccc(CCN(C)CCC[C@](C#N)(c2ccc(OC)c(OC)c2)C(C)C)cc1OC` [dexverapamil], the percent viability was determined as 371%.
For `O=C(O)CCc1nc(-c2ccccc2)c(-c2ccccc2)o1` [oxaprozin], the percent viability turned out to be 351%.
In the case of `COc1ccc(CC(C)NCC(O)c2ccc(O)c(NC=O)c2)cc1` (stereo not given) [formoterol], the percent viability is 147% and 205%.
With `CC[C@H](C)[C@@H]1NC(=O)[C@H](Cc2ccc(OC)cc2)NC(=O)CCCSC[C@@H](C(=O)N2CCC[C@H]2C(=O)N[C@@H](CC(C)C)C(=O)NCC(N)=O)NC(=O)[C@H](CC(N)=O)NC(=O)[C@H](CCC(N)=O)NC1=O` [carbetocin], the percent viability was 196%.
Consider `O=[N+]([O-])c1ccc(O)c2ncccc12` [nitroxoline], for which the percent viability turned out to be 253%.
In the case of `CC1=C(C(=O)O)N2C(=O)[C@@H](NC(=O)[C@H](N)c3ccccc3)[C@H]2SC1` [cefalexin] it was 99.8%.
`O=C1CN2Cc3c(ccc(Cl)c3Cl)N=C2N1`: the percent viability turned out to be 372%.
